Results from PubChem BioAssay AID540275 (National Center for Advancing Translational Sciences (NCATS), 2011).
Hit rate of the full screen: of about 320,000 compounds, about 620 (0.19%) were called active. Inconclusive means that the source gave no clear call. Such entries were picked first, then a sample of the others. Rule as the data show it: active = activation above about 80%; inconclusive = between about 30% and that limit; inactive = weaker than that.

By UniProt entry, the sequences of proteins in these tests, tags left out.
UniProt Q8NER1, whole entry, looked up: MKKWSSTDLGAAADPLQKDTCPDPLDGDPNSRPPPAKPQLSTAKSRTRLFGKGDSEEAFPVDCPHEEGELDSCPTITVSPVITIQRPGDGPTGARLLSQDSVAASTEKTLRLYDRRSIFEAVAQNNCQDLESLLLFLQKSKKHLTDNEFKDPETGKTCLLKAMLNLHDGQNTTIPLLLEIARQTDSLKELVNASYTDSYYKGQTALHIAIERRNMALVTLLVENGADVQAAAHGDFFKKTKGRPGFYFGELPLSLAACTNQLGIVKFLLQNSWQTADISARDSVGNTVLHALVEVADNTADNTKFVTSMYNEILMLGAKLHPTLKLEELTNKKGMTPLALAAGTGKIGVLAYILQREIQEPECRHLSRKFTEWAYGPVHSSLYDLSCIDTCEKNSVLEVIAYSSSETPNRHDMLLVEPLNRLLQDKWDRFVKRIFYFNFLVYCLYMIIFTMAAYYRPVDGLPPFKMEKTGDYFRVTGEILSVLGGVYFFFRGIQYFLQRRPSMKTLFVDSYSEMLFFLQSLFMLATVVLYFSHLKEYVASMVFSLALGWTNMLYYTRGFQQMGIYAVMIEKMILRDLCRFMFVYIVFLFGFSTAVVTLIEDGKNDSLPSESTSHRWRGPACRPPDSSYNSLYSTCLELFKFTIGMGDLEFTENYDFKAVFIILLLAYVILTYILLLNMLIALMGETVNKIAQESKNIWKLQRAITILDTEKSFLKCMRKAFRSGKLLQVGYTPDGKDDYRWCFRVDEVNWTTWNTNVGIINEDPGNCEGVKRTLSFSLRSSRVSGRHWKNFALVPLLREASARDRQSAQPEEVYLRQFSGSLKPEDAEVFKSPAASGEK

What follows are molecules tested against Transient receptor potential cation channel subfamily V member 1 (Homo sapiens) (UniProt Q8NER1) (assay: HTS Assay for Compounds that Act as Agonists of the Vanilloid Receptor 1). Settings: TRPV1-expressing cells, Fluo-8 calcium influx, agonist mode; at 8.33 µM, active compounds read high.
How it was run: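 TRPV1-expressing cells were cultured overnight at 35.5C and loaded with Fluo-8 calcium dye for 40 to 90 min at room temperature. After a 10 s baseline, compound was added and calcium influx was read kinetically for 3 min (ex 480/em 520 nm).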
Also: 0% is about no effect.

Row | Structure (SMILES) | activation
1 | O=C(N/N=C/c1ccncc1)c1ccccc1 | inactive: 0.114%
2 | CC(C)C(NC(=O)c1ccccc1Br)c1ccccc1 (stereo not given) | inconclusive: 52.3%
3 | O=C(Nc1ccc(Cl)c(Cl)c1)c1ccncc1 | inconclusive: 49.8%
4 | COc1cccc(NC(=O)CN2C(=O)CSc3nc(C)cc(C)c32)c1 | inactive: -2.26%
5 | Fc1ccccc1CNC(=S)NCc1ccc(Cl)cc1 | active: 84.1%
6 | Cc1ccc(NC(=O)c2ccc3nc[nH]c3c2)cc1C | inconclusive: 45.3%
7 | COCCOc1ccc(C(F)(F)F)cc1NC(=O)Cc1ccc(S(=O)(=O)N2CCOCC2)s1 | inconclusive: 34%
8 | O=C(NCCc1ccc2c(c1)OCCO2)c1ccc(F)cc1 | inconclusive: 55.8%
9 | CC(C)c1ccc(NC2CCCN(C(=O)c3ccc(N4CCOCC4)cc3)C2)cc1 (stereo not given) | inconclusive: 64.8%
10 | O=C(COc1ccc(Cl)cc1)NCc1ccncc1 | inconclusive: 59.5%
11 | CC(Oc1cccc(NC(=O)c2cccs2)c1)C(=O)c1ccccc1 (stereo not given) | inconclusive: 53%
12 | CC1Oc2ccccc2C=C1/C=N/NC(=O)c1ccncc1 (stereo not given) | inconclusive: 59.5%
13 | O=C(Nc1ccc(Nc2ccccc2)cc1)Nc1ccccc1Cl | inconclusive: 52.5%
14 | CC(Oc1ccc(F)cc1)C(=O)Nc1ccc(N2CCOCC2)cc1N1CCOCC1 (stereo not given) | inconclusive: 44.2%
15 | CC(C)CNc1nc(=S)nc(N(C)C)[nH]1 | inactive: -3.56%
16 | CCNC(=O)NS(=O)(=O)c1cnccc1Nc1cccc(Cl)c1 | inactive: 0.0622%
17 | N#Cc1ccc(C2=CC(=O)C[C@H](c3ccc4c(c3)OCO4)C2)cc1 | inconclusive: 35.5%
18 | O=C(C1=C[C@@H](c2coc3ccccc3c2=O)C[C@@H](OCc2ccc(CO)cc2)O1)N1CCN(Cc2ccccc2)CC1 | inconclusive: 33%
19 | CC1=C(C(=O)OCc2ccccc2)C(c2ccccc2-c2ccccc2)NC(=O)N1CCCCCC(=O)O (stereo not given) | inconclusive: 31.9%
20 | Fc1c(F)c(F)c(NC2=NCCCCC2)c(F)c1F | inconclusive: 33.2%
21 | CCc1ccccc1-n1ncc(C(=O)Nc2ccccc2OC)c1C | inconclusive: 65.1%
22 | CCOc1ccc(CCNC(=O)c2[nH]c(C)c(C(C)=O)c2C)cc1OCC | inconclusive: 41.7%
23 | CCN1CCN(c2ccc(Nc3ccnc4ccccc34)cc2)CC1 | inactive: 1.2%

Quoted from the listing:
O=C(Nc1ccc(Nc2ccccc2)cc1)Nc1ccccc1Cl – activation: inconclusive: 52.5%
CCc1ccccc1-n1ncc(C(=O)Nc2ccccc2OC)c1C – activation: inconclusive: 65.1%

(list continues)

Row | Structure (SMILES) | activation
24 | CCCn1c(SC(C)C(=O)NCC2CCCO2)nc2sc(CC)cc2c1=O (stereo not given) | inconclusive: 39.4%
25 | CC(=O)NC12CC3CC(C1)CC(C(=O)Nc1c(C)n(C)n(-c4ccccc4)c1=O)(C3)C2 | inactive: -4.14%
26 | O=S(=O)(c1ccc(Cl)cc1)N1CCCN(c2ccc(C(F)(F)F)cn2)CC1 | inconclusive: 38%
27 | COc1ccc(NC(=O)CCN2CCN(S(=O)(=O)c3ccc(Cl)cc3)CC2)cc1 | inactive: 1.63%
28 | N#Cc1c(N)n(Cc2ccccc2)c(=O)c2cc([N+](=O)[O-])ccc12 | inactive: -2.65%
29 | Cc1ccc2c(CN3CCCCC3)cc(=O)oc2c1C | inconclusive: 57.1%
30 | COC(=O)c1c(C)[nH]c(C(=O)/C=C/c2ccccc2)c1C | inactive: -0.296%
31 | Cc1cc(C)c(O)c(-c2cc(C(=O)Nc3cccnc3)[nH]n2)c1 | inconclusive: 40.6%
32 | O=C(CCCOc1ccccc1)Nc1ccc(Cl)cn1 | inconclusive: 33.1%
33 | CSc1nnc(N2C(=O)C(O)=C(C(=O)c3ccco3)C2c2ccccc2)s1 (stereo not given) | inactive: 9.22%
34 | Cc1sc(N2CCN(S(=O)(=O)c3ccc4c(c3)NC(=O)CO4)CC2)nc1-c1ccccc1 | inconclusive: 46.4%
35 | COc1ccc(N2CCN(c3oc(COc4ccccc4)nc3C#N)CC2)cc1 | inactive: 1.7%
36 | Cc1cc(C)c(S(=O)(=O)N2CCN(C(=O)C3COc4ccccc4O3)CC2)c(C)c1 (stereo not given) | inactive: -0.873%
37 | COC(=O)c1ccc(/C=N/OCC(=O)NCc2ccc(F)cc2)cc1 | inconclusive: 39.3%
38 | Cc1ccc(OCC(=O)N2N=C(c3cccnc3)CC2(O)C(F)(F)F)cc1C (stereo not given) | inconclusive: 57.6%
39 | CCOc1ccccc1Nc1ncnc2c1cnn2-c1ccccc1 | inconclusive: 45.6%
40 | CCOc1ccc(NC(=O)c2[nH]c(C)c(C(C)=O)c2C)cc1 | inactive: 9.76%
41 | CC(C)Sc1ncnc2c1oc1ccccc12 | inconclusive: 33%
42 | CCOc1cc(N2CCOCC2)c(OCC)cc1NC(=O)c1ccc(OCc2c(C)noc2C)c(OC)c1 | inactive: -4.41%
43 | CC(NC(=O)Nc1ccc(F)cc1)c1ccc2c(c1)OCO2 (stereo not given) | inconclusive: 65.2%
44 | CC(C(=O)Nc1ccc2c(c1)OCCO2)N(C)Cc1c(F)cccc1Cl (stereo not given) | inconclusive: 47.3%
45 | O=C(C1=NN[C@@H]2C(=O)N(c3cccc(C(F)(F)F)c3)C(=O)[C@H]12)C(c1ccccc1)c1ccccc1 | inconclusive: 54.9%
46 | CCCS(=O)(=O)c1c(S(=O)(=O)CCC)c2c3ccccc3ccn2c1C(=O)OC | inconclusive: 47.6%

Row | Structure (SMILES) | activation
47 | COc1ccccc1/C=C(/C(=O)OCC(=O)Nc1ccccc1C)c1ccccc1 | inconclusive: 34.2%
48 | CCc1ccc(C(=O)Nc2ccc(OC)c(S(=O)(=O)N3CCOCC3)c2)cc1 | inactive: 6.48%
49 | CCC(CC)c1nnc(NC(=O)CCNC(=O)c2ccccc2Cl)s1 | inactive: 0.461%
50 | COC(=O)c1ccc(-c2nc3ccccc3[nH]2)cc1 | inconclusive: 39.7%
51 | Cc1ccc(OCC(=O)Nc2ccc3oc(=O)ccc3c2)cc1 | inconclusive: 65.2%
52 | COc1ccc(CNC(=O)C(C)Sc2ccc(C)cc2)cc1 (stereo not given) | inconclusive: 41.9%
53 | Cc1cc(C)cc(NC(=S)N(CCCN2CCN(C)CC2)Cc2cccs2)c1 | inconclusive: 31.4%
54 | O=C(Nc1ccccn1)c1ccc(Br)c(S(=O)(=O)N2CCCC2)c1 | inconclusive: 40.1%
55 | CC(=O)[C@H]1CC[C@H]2[C@@H]3C=CC4=CC(=O)CC[C@@]4(C)[C@@H]3CC[C@]12C | inactive: 23.4%
56 | Cc1ccc(C)c(S(=O)(=O)N2CCNCC2)c1 | inactive: 1.24%
57 | Cc1ccc2nc(C)cc(Nc3ccc([N+](=O)[O-])cc3)c2c1 | inconclusive: 76.4%
58 | CCCC(=O)N1CCN(c2nc3ccc(Cl)cc3s2)CC1 | inconclusive: 37.3%
59 | O=C(N/N=C/c1c(O)n(Cc2ccco2)c(=O)[nH]c1=O)c1ccccc1 | inconclusive: 32.7%
60 | CC(C)(C)C1CCC(C(=O)Nc2ccc(N3CCOCC3)cc2N2CCOCC2)CC1 (stereo not given) | inconclusive: 51.4%
61 | COc1ccccc1-n1nnnc1SCC(=O)Nc1ccccc1 | inactive: -2.33%
62 | COC(=O)c1cc(C)[nH]c2c(C)cc3nc4ccccc4c3c12 | inactive: 16%
63 | CC(C)[C@H](NC(=O)OCc1ccccc1)C(=O)OCc1cc(=O)oc2cc(O)ccc12 | inconclusive: 35.3%
64 | Cc1sc(NC(=O)C(C)C)c(C(=O)Nc2ccccc2)c1C | inconclusive: 63.4%
65 | CC(C)(C)NC(=O)CCN(/N=C/c1ccccc1F)C1=NS(=O)(=O)c2ccccc21 | inconclusive: 37.7%
66 | Cc1cc(C)c2c(CN3CCOCC3)cc(=O)oc2c1C | inconclusive: 34.3%
67 | CCc1c(C)nc2cc(-c3ccc(OC)c(OC)c3)nn2c1NCC1CC1 | inactive: -5.97%
68 | CCn1ncc(Cl)c1C(=O)Nc1ccc2c(c1)CCC2 | inconclusive: 38.2%
69 | COc1cc(/C=C(\C#N)c2nc3ccccc3o2)ccc1O | inconclusive: 64.8%

Among those listed so far, these contain bromine:
Row | Structure (SMILES) | activation
2 | CC(C)C(NC(=O)c1ccccc1Br)c1ccccc1 (stereo not given) | inconclusive: 52.3%
54 | O=C(Nc1ccccn1)c1ccc(Br)c(S(=O)(=O)N2CCCC2)c1 | inconclusive: 40.1%

(cont.)

Row | Structure (SMILES) | activation
70 | O=C(NC(=S)NC1CCCCCCCCCCC1)c1cccnc1 | inconclusive: 32.2%
71 | Cc1cccc(CN2C(=O)N/C(=C/c3ccc(C)s3)C2=O)c1 | inconclusive: 31.4%
72 | O=C(NCc1csc(-c2cccs2)n1)Nc1ccc(F)cc1F | inconclusive: 40.2%
73 | COc1cccc(OCc2cc(C(=O)N(C)C3CCOCC3)no2)c1 | inactive: 21.8%
74 | CCOC(=O)[C@H]1[C@H]2COc3ccccc3[C@@H]2N2C(=O)c3cc(C)ccc3NC(=O)[C@@]12C | inconclusive: 67.4%
75 | Cc1ccc(Cl)cc1NC(=O)C(Cc1ccccc1)N1C(=O)C2C3CCC(C3)C2C1=O (stereo not given) | inconclusive: 34.3%
76 | COC(=O)c1[nH]c2ccccc2c1NC(=O)CN1CCN(C(=O)c2ccco2)CC1 | inactive: -0.474%
77 | O=C(Nc1cc(C(F)(F)F)ccc1N1CCOCC1)c1ccccc1 | inconclusive: 34%
78 | O=S(=O)(c1ccc(Br)cc1Cl)N1CCN(CCO)CC1 | inactive: 1.37%
79 | CCCc1cc(C(=O)Nc2nccs2)cs1 | inconclusive: 42.3%
80 | S=C(NCc1ccc(Cl)c(Cl)c1)NCc1ccco1 | inconclusive: 77.3%
81 | COc1ccc(/C=C/C(=O)Nc2ccccc2C(=O)O)cc1 | inactive: -0.667%
82 | Cc1ccc(C(C)C)c(OCC(=O)NN=C2CCCC2)c1 | inconclusive: 40.8%
83 | CC(=O)N1CCSc2ccc(S(=O)(=O)Nc3ccccc3C)cc21 | inconclusive: 32%
84 | CCN(CC)c1ccc(NC(=O)c2cccc(C)c2OC)c(C)c1 | inconclusive: 32.6%
85 | COc1ccc(C2CCCN2C(=O)Nc2ccc(Cl)cc2)cc1OC (stereo not given) | inconclusive: 72.9%
86 | O=S(=O)(Nc1cccc(-c2ccc(N3CCCCCC3)nn2)c1)c1cccc(F)c1 | inconclusive: 31.9%
87 | C/C(=N/Nc1ccc([N+](=O)[O-])cc1)c1ccc(C)cc1C | inactive: -3.17%
88 | O=C(Nc1ccc(N2CCCCCC2)cc1)c1ccc[nH]1 | inconclusive: 74.1%
89 | O=C(Nc1ccccc1)OCc1cc(-c2ccccc2Cl)on1 | inconclusive: 41.4%
90 | CC1CC(C)CN(S(=O)(=O)N2CCC(C(=O)NCc3ccco3)CC2)C1 (stereo not given) | inactive: 12.4%

Laid out differently: results already given
Cc1cccc(CN2C(=O)N/C(=C/c3ccc(C)s3)C2=O)c1
  activation: inconclusive: 31.4%
O=C(NCc1csc(-c2cccs2)n1)Nc1ccc(F)cc1F
  activation: inconclusive: 40.2%
COc1cccc(OCc2cc(C(=O)N(C)C3CCOCC3)no2)c1
  activation: inactive: 21.8%
